Laboratory results published in PubChem BioAssay AID2685 (National Center for Advancing Translational Sciences (NCATS), 2010).
Screen size: about 320,000 compounds; about 2,100 (0.66%) were called active. Inconclusive results, whose numbers are uncertain, are shown with a selection of clear calls. Calls come from the whole dose curve; as a rule, active = well fitted inhibition curve with a large enough effect in the signal ratio, with a control signal flat (not every such curve was filed as active); inconclusive = small, poorly fitted or top-dose-only effect, or effect the other way, or a change in a side signal; inactive = flat fitted curve, though single readings scatter; the % refers to the signal ratio. Potencies of inconclusive entries are doubtful fits and often do not repeat.
% is set by controls: 0 for no effect and ±100 for the full control effect; potency is the fitted concentration of half-maximal effect.

Assay: qHTS Assay for Lipid Storage Modulators in Drosophila S3 Cells
Conditions: BODIPY lipid droplet fluorescence, 18-24 h, cells fed with added oleic acid; lipid storage change, negative = inhibition: at 46.1 µM (top of the series) unless noted
Summary of the method: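 Drosophila S3 cells got compounds at several concentrations plus oleic acid (400 uM solution). Laser-scanning cytometry with 488 nm excitation read lipid droplets at 500-530 nm and cells at 575-640 nm. Percent activity was relative to 20 uM Triacsin C.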
In the case of `CCN(c1ccccc1)S(=O)(=O)c1ccc(Cl)c(C(=O)N2CCCC2)c1`, the lipid storage change, negative = inhibition was inconclusive: 0.0987%. For `CCSc1nnc(-c2cccc(S(=O)(=O)N(C)C)c2)n1-c1cc(OC)ccc1OC`, the Potency was inconclusive: 14.6 µM [activator, partial curve]. For `Cc1nnc(NC(=O)CCS(=O)(=O)Cc2ccccc2)s1`, the lipid storage change, negative = inhibition was inconclusive: 133%. In the case of `CC#CC[N+](C)(CC#CC)CC(=O)c1ccccc1`, the lipid storage change, negative = inhibition was inconclusive: -16.9%. With `O=C(NC1CCCC1)C(Cc1ccccc1)n1cccc1` (stereo not drawn) the lipid storage change, negative = inhibition was inconclusive: -6.12%. For `COc1cc(C=O)ccc1OCCOc1ccccc1[N+](=O)[O-]`, the lipid storage change, negative = inhibition was inconclusive: 8.84%. For `Cc1ccc(C)c(N2C(=N)S/C(=C\c3ccc(-c4ccccc4C(=O)O)o3)C2=O)c1`, the lipid storage change, negative = inhibition was inconclusive: 3.31%. With `Cc1ccc(NC(=O)O/N=C/c2ccc(Br)cc2)cc1` the lipid storage change, negative = inhibition was inconclusive: 105%. With `CC1=CC(=C(C#N)C#N)c2ccccc2N1C` the lipid storage change, negative = inhibition was inconclusive: 21.2%. For `Cc1ccc(-n2nnnc2SCC(=O)NC2CC2)cc1C`, the lipid storage change, negative = inhibition was inconclusive: -36.9%. For `Cc1cc2c(cc1C)C(c1ccsc1)CC(=O)N2` (stereo not drawn), the lipid storage change, negative = inhibition was inconclusive: -6.3%. For `Cc1cccc(NC(=O)Cn2nnc(-c3cccs3)n2)c1C`, the lipid storage change, negative = inhibition was inconclusive: 12.4%. With `COc1ccc(C2C(C(=O)Nc3cccnc3)=C(C)Nc3nc(-c4ccco4)nn32)cc1` (stereo not drawn) the lipid storage change, negative = inhibition was inconclusive: -15.8%. For `COc1cccc(C(=O)Nc2ccc(NC(=O)C3CCCCC3)nc2)c1`, the lipid storage change, negative = inhibition was inconclusive: -18.5%. In the case of `COc1ccc(C)cc1NC(=O)CSc1nc2scc(C)c2c(=O)[nH]1`, the lipid storage change, negative = inhibition was “inactive”. With `Nc1nonc1-c1noc(-c2ccc(Br)o2)n1` the lipid storage change, negative = inhibition was inconclusive: 23.7%. With `Cc1cccc(C2CC3(CC(C)(C)NC(=S)N3)Oc3cc(O)ccc32)c1` (stereo not drawn) the lipid storage change, negative = inhibition was inconclusive: -1.16%. With `CCn1c(SCC(=O)N/N=C(\C)c2ccncc2)nnc1-c1ccccc1` the lipid storage change, negative = inhibition was inconclusive: 21%. For `CC(C)(C)NC(=O)C(c1ccc(F)cc1)N(C(=O)CCC(=O)Nc1ccccn1)C1CCCC1` (stereo not drawn), the lipid storage change, negative = inhibition was inconclusive: -34%. For `COc1cc(C(=O)OC2CCOC2=O)c([N+](=O)[O-])cc1OC` (stereo not drawn), the Potency was inconclusive: 29.1 µM [falling, single point]. In the case of `COc1ccc(N2CCN(C(=O)Cn3cncn3)CC2)cc1`, the lipid storage change, negative = inhibition was inconclusive: 1.88%. In the case of `c1cncc(-c2nn[nH]n2)c1`, the lipid storage change, negative = inhibition was inconclusive: -5.23%. In the case of `CC(=O)c1cnn(-c2ccc(Cl)c(Cl)c2Cl)c1C`, the lipid storage change, negative = inhibition was inconclusive: 7.9%. With `O=C(Nc1c(C(=O)c2ccccc2)oc2ccccc12)c1cc(-c2ccccc2O)n[nH]1` the lipid storage change, negative = inhibition was inconclusive: -42.5%. For `CC(On1nnc2ccccc21)C(=O)N1CCN(Cc2ccccc2)CC1` (stereo not drawn), the lipid storage change, negative = inhibition was inconclusive: 8.97%. With `Cc1ccc(C(=O)Nc2ccc(C(=O)O)cc2NC(=O)c2ccc(C)cc2)cc1` the Potency was inconclusive: 3.66 µM [activator, single point]. In the case of `CCCCc1c(O)nc(SCC(=O)Nc2ccc3c(c2)CCC3)[nH]c1=O`, the Potency was inconclusive: 13 µM [falling, partial curve]. In the case of `COC(=O)c1cc([N+](=O)[O-])ccc1N1CCN(Cc2ccccc2)CC1`, the Potency was inconclusive: 2.31 µM [activator, full curve]. For `O=C(CN1CCCc2ccccc21)N/N=C/c1ccc(O)cc1O`, the lipid storage change, negative = inhibition was inconclusive: -24.3%. With `COCCN1C(=S)N[C@@H](c2ccccc2)C(C(=O)OC)=C1C` the lipid storage change, negative = inhibition was inconclusive: 23.2%. In the case of `CC1CCC(NC(=O)CN2CCCN(Cc3ccc(F)cc3Cl)C2=O)CC1` (stereo not drawn), the lipid storage change, negative = inhibition was inconclusive: 15.2%. In the case of `O=C(CNc1cccc(C(F)(F)F)c1)Nc1cccc(S(=O)(=O)N2CCCC2)c1`, the Potency was inconclusive: 2.06 µM [falling, partial curve]. In the case of `O=C(c1cccc(Cl)c1)N1CCN(c2ncccn2)CC1`, the lipid storage change, negative = inhibition was inconclusive: 11.6%. With `COc1ccccc1NC1C=CS(=O)(=O)C1` (stereo not drawn) the lipid storage change, negative = inhibition was inconclusive: -36.7%. In the case of `O=C(CN1C(=O)C2CC=CCC2C1=O)Nc1nnc(SCc2ccc(F)cc2)s1` (stereo not drawn), the lipid storage change, negative = inhibition was inconclusive: 36.9%. With `COc1ccc(C(=O)NCC2(N3CCCCC3)CCCCC2)cc1S(=O)(=O)N(C)C` the Potency was inconclusive: 16.4 µM [activator, single point]. In the case of `CC(=O)N(CCc1cccc(C)c1)Cc1cc2ccc(C)cc2[nH]c1=O`, the Potency was inconclusive: 8.2 µM [falling, partial curve]. For `O=C(CN(Cc1ccccc1F)C(=O)Cn1nnc(-c2cccs2)n1)NC1CCCCC1`, the lipid storage change, negative = inhibition was inconclusive: 32%. In the case of `O=C(CSc1ccccn1)Nc1ccc2c(c1)OCO2`, the Potency was inconclusive: 1.64 µM [activator, partial curve]. With `Cc1c(NC(=O)c2c([N+](=O)[O-])cnn2C)c(=O)n(-c2ccccc2)n1C` the lipid storage change, negative = inhibition was inconclusive: -52.5%. For `CC(C(=O)NC1CCCC1)N1CCN(Cc2ccccc2)CC1` (stereo not drawn), the lipid storage change, negative = inhibition was inconclusive: -22.8%. For `O=C(O)C(Cc1ccccc1-c1ccccc1)C(=O)O`, the lipid storage change, negative = inhibition was inconclusive: 4.74%. With `Cc1cccn2c(=O)c3cc(S(=O)(=O)c4ccc(Br)cc4)c(=N)n(C4CCCCC4)c3nc12` the lipid storage change, negative = inhibition was inconclusive: 9.64%. With `CN1/C(=C\C(=O)c2cccc(S(=O)(=O)N3CCCCC3)c2)C(C)(C)c2ccccc21` the Potency was inconclusive: 1.64 µM [activator, partial curve]. With `Cc1ccccc1S(=O)(=O)N(CC(O)CN1C(=O)NC(C)(C)C1=O)c1ccccc1` (stereo not drawn) the lipid storage change, negative = inhibition was inconclusive: 8.41%. With `COc1ccc(-n2nc3c(N4CCC(C(=O)NCc5ccco5)CC4)nnc(C)c3c2C)cc1` the Potency was inconclusive: 29.1 µM [activator, single point]. In the case of `COCc1cc(C)nc(N)c1C#N`, the lipid storage change, negative = inhibition was inconclusive: -42.5%. With `Cc1ccccc1OCCn1cc(C(=O)O)c2ccccc21` the lipid storage change, negative = inhibition was inconclusive: 42.1%. For `Cc1ccc(C)c(NC(=O)CSc2nnc(-c3n[nH]c4ccccc34)o2)c1`, the lipid storage change, negative = inhibition was inconclusive: -44.6%. With `Cc1cc(Nc2cccc(C(F)(F)F)c2)n2nc(C)nc2n1` the Potency was inconclusive: 2.91 µM [activator, partial curve, poor fit]. In the case of `COc1cccc(C(=O)Nc2nnc(S(=O)(=O)N(C)Cc3ccc(F)cc3)s2)c1`, the Potency was active: 29.1 µM. For `CCN(CC)c1nc2cc(C)ccc2cc1/C=C(\C#N)C(N)=O`, the lipid storage change, negative = inhibition was inconclusive: 59.7%. With `O=C(NCCc1ccccc1)C1(S(=O)(=O)c2ccc(Cl)cc2)CC1` the Potency was inconclusive: 29.1 µM [activator, single point]. With `COc1ccc(C(=O)N2CC3(CC(c4ccc(Cl)cc4)=NO3)C[C@H]2C(=O)NCC(N)=O)cc1` (stereo partly drawn) the lipid storage change, negative = inhibition was inconclusive: 26.7%. With `CCOc1cccc(CNCCCSc2ncccn2)c1` the lipid storage change, negative = inhibition was inconclusive: 24.7%. In the case of `COc1ccc(CCN(C)CCN2C(=O)c3ccccc3C2=O)cc1OC`, the lipid storage change, negative = inhibition was inconclusive: -3.98%. In the case of `O=C(COC(=O)c1n[nH]c(=O)c2ccccc12)c1ccccc1`, the Potency was inconclusive: 3.66 µM [cytotoxic, full curve]. In the case of `O=C(N/N=C/c1c[nH]c2ccccc12)c1ccc(Cl)cc1`, the Potency was inconclusive: 29.1 µM [falling, single point]. With `COc1cccc(-c2ncc3ccccc3c2COC(=O)c2ccccc2C(=O)O)c1` the lipid storage change, negative = inhibition was inconclusive: 61.6%. In the case of `CC1CCN(C(=O)COC(=O)c2ccc(F)c(S(=O)(=O)N3CCOCC3)c2)CC1`, the lipid storage change, negative = inhibition was inconclusive: -10.2%. In the case of `COCCN(C(=O)c1ccc(NC2CC2)c([N+](=O)[O-])c1)c1c(N)n(CC(C)C)c(=O)[nH]c1=O`, the lipid storage change, negative = inhibition was inconclusive: 22.8%. For `COc1ccccc1NC(=S)N1CCC(NC(=O)c2ccco2)CC1`, the Potency was inconclusive: 6.51 µM [falling, partial curve]. In the case of `NS(=O)(=O)c1ccc(CNC(=O)c2ccc(NS(=O)(=O)c3ccc4[nH]c(=O)[nH]c4c3)cc2)cc1`, the lipid storage change, negative = inhibition was inconclusive: 7.36%. With `Cc1ccc(S(=O)(=O)C(C#N)c2nc3ccccc3nc2N2CCCCC2)cc1` (stereo not drawn) the Potency was inconclusive: 0.0291 µM [falling, full curve, poor fit]. In the case of `O=C1C=C(c2ccc3ccccc3c2)C[C@@H](c2ccc(F)cc2)C1`, the Potency was inconclusive: 1.16 µM [falling, partial curve, poor fit]. In the case of `CN(C)c1ccc(Nc2cc(Cl)ncn2)cc1`, the Potency was inconclusive: 16.4 µM [falling, single point]. For `Oc1cc(O)c2c(c1)O[C@H](c1ccc(O)c(O)c1)[C@@H](O)C2`, the lipid storage change, negative = inhibition was inconclusive: -15.3%. In the case of `CCCOc1ccc(NC(=O)CCC(=O)NC(C)c2ccccc2)cc1` (stereo not drawn), the lipid storage change, negative = inhibition was inconclusive: 52%. For `c1ccc(-c2nc3ccccn3c2NCc2ccc3c(c2)OCO3)cc1`, the lipid storage change, negative = inhibition was inconclusive: -19.2%. For `CCOc1ccccc1C1NC(=O)CCC1[N+](=O)[O-]` (stereo not drawn), the lipid storage change, negative = inhibition was inconclusive: -19.5%. In the case of `CCCNC(=O)c1cccc(Cn2cc(Br)c([N+](=O)[O-])n2)c1`, the lipid storage change, negative = inhibition was inconclusive: 22.2%. For `Cc1c(C(=O)NCCc2ccc(S(N)(=O)=O)cc2)cccc1[N+](=O)[O-]`, the lipid storage change, negative = inhibition was inconclusive: -1.37%. For `C/C(N)=C(/C#N)C(=O)COC(=O)C(c1ccccc1)c1ccccc1`, the lipid storage change, negative = inhibition was inconclusive: -15.7%. In the case of `OCCC1CN(Cc2cc3c(cc2Cl)OCO3)CCN1C1CCCC1` (stereo not drawn), the lipid storage change, negative = inhibition was inconclusive: -9.28%. With `CC(=O)Nc1sc(C)c(C)c1C(=O)OCC(=O)N(C)c1c(N)n(Cc2ccccc2)c(=O)[nH]c1=O` the lipid storage change, negative = inhibition was inconclusive: 18.3%. In the case of `O=C(N1CCOCC1)N1CCC(c2nc(-c3ccc(S(=O)(=O)N4CCOCC4)cc3)no2)CC1`, the Potency was inconclusive: 2.91 µM [falling, full curve]. For `COc1ccccc1NS(=O)(=O)c1ccc2oc(=S)[nH]c2c1`, the lipid storage change, negative = inhibition was “inactive”. In the case of `CC(C(=O)N1CCCCCC1)N(c1ccc(Cl)cc1)S(C)(=O)=O` (stereo not drawn), the lipid storage change, negative = inhibition was inconclusive: 25.3%.
